US20130022629A1, “Modulators of Immunoinhibitory Receptor PD-1, and Methods of Use Thereof” (priority 2010, published 2013)
Some of these results come from one statement about several compounds together.

Molecular target: T1, PD-1 (Mus musculus, UniProt Q02242)
T1 construct: expressed in transfected cells; host or cells: CD4 T cells purified from spleens of PD-1^C transgenic mice (transgene-driven constitutive PD-1)
T1 sequence (Q02242 25-288): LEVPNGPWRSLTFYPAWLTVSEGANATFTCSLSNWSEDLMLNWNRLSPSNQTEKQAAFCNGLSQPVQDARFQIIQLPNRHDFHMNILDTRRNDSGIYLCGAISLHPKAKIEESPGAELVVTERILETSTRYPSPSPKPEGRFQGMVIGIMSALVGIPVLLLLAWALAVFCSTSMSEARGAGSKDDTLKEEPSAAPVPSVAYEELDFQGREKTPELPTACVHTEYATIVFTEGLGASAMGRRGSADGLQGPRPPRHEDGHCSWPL
Experiment: Validation (secondary screen): rescue of PD-1 mediated inhibition of IFN-γ production in PD-1^C (Tg) T cells
Format: cell-based
Conditions: PD-1 Tg T cells, anti-CD3 plus PD-L2Ig; dilution series of compound (FIG. 3)
Text: In vitro assays to test for compounds that interfere with the PD-1 function have been developed. These assays utilize unique mouse strains to specifically identify PD-1-specific effects. For example, a transgenic mouse that constitutively expresses PD-1 on T cells (PD-1^C) has been developed (43). It has recently been disclosed that PD-1^C T cells are very susceptible to signaling through PD-1, as measured by a decrease in T cell proliferation and cytokine production. These PD-1^C T cells can be used to assess the functional effects of small molecules. A PD-1 deficient mouse (PD-1^−/−) has also been developed (44), and T cells from such mice will serve as useful controls for in vitro as well as in vivo studies.
In certain embodiments, PD-1^C T cells are cultured with a proliferative stimulus (anti-CD3) plus either PD-L2-Ig or a negative control Ig fusion protein. […]
The specificity of the effects of sulfamonomethoxine and sulfamethizole were assessed by comparing responses of wild type, PD-1^c, and PD-1^−/− T cells. The effects of sulfamonomethoxine and sulfamethizole were evaluated over a range of compound concentrations (dilution series from 16 nM to 80 μM) and analyzed their effects on T cell proliferation and cytokine production. […]

Structure (SMILES) | concentration above which specific effects are seen in rescuing PD-1 mediated inhibition of IFN-γ production
Cc1nnc(NS(=O)(=O)c2ccc(N)cc2)s1 [sulfamethizole] | above 400 nM
COc1cc(NS(=O)(=O)c2ccc(N)cc2)ncn1 [sulfamonomethoxine] | above 400 nM
